Taken from: PubChem BioAssay AID1159578 (Peter MacCallum Cancer Centre, 2015)
The whole screen tested about 18,000 reagents; below is an unselected part. Over the whole deposit, about 1,030 (5.7%) were called active. 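Inactive calls also include pools with fewer than 3300 nuclei, whose migration was not assessed.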 Raw values are not corrected between plates.

Assay: 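Genome-wide hunt for genes controlling movement of lymphatic endothelial cells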 (primary screen)
Cell system: human lymphatic endothelial cells
Reagents: siRNA pool against human genes, 40 nM
Time to read-out: 48 h after transfection
Detection: 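High-content imaging of dye-stained cells in a scratch assay measures filled wound area and nuclei per well; duplicate means given as ratio to mock and robust z-score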
Direction: migration robust z-score: higher = faster migration into the scratch; migration relative to mock: higher = more scratch area covered than mock; nuclei per well: higher = more cells in the well
Hit rule: 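Migration changed when robust z exceeds 2 or falls below -2 and mean nuclei number is at least 3300; otherwise not called changed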
Meaning of the calls: active = migration changed; inactive = no migration change, or too few cells

no.	target gene	migration robust z-score	migration class with cell-count check	migration relative to mock	nuclei per well, duplicate mean	activity call
1	E2F2 (E2F transcription factor 2)	1.87	migration z between -2 and 2; enough cells	1.17	5554	inactive
2	DNAH10 (dynein axonemal heavy chain 10)	-0.8	migration z between -2 and 2; enough cells	0.68	5840	inactive
3	BMP7 (bone morphogenetic protein 7)	-1.76	under 3300 nuclei; migration not judged	0.46	3276	inactive
4	TMEM39B (transmembrane protein 39B)	1.05	migration z between -2 and 2; enough cells	1.16	6168	inactive
5	AQP9 (aquaporin 9)	-0.21	migration z between -2 and 2; enough cells	0.76	5258	inactive
6	RNF145 (ring finger protein 145)	0.18	migration z between -2 and 2; enough cells	0.84	5365	inactive
7	ZFP69 (ZFP69 zinc finger protein)	-2.26	migration z below -2; enough cells	0.3	6124	active

The list goes on (3 carried over from the part before).
no.	target gene	migration robust z-score	migration class with cell-count check	migration relative to mock	nuclei per well, duplicate mean	activity call
5	AQP9 (aquaporin 9)	-0.21	migration z between -2 and 2; enough cells	0.76	5258	inactive
6	RNF145 (ring finger protein 145)	0.18	migration z between -2 and 2; enough cells	0.84	5365	inactive
7	ZFP69 (ZFP69 zinc finger protein)	-2.26	migration z below -2; enough cells	0.3	6124	active
8	PLEKHG3 (pleckstrin homology and RhoGEF domain containing G3)	-1.98	migration z between -2 and 2; enough cells	0.37	4356	inactive
9	CYLC1 (cylicin 1)	0.3	migration z between -2 and 2; enough cells	0.96	5896	inactive
10	SYNGR3 (synaptogyrin 3)	2.02	migration z above 2; enough cells	1.4	6060	active
11	BPIFB4 (BPI fold containing family B member 4)	0.36	migration z between -2 and 2; enough cells	0.98	6601	inactive
12	SLC18A2	-0.88	migration z between -2 and 2; enough cells	0.64	6132	inactive
13	GREB1 (growth regulating estrogen receptor binding 1)	1.45	migration z between -2 and 2; enough cells	1.26	6046	inactive
14	NMRK1 (nicotinamide riboside kinase 1)	-1.32	migration z between -2 and 2; enough cells	0.54	5491	inactive
15	LRRC42 (leucine rich repeat containing 42)	-0.56	migration z between -2 and 2; enough cells	0.74	5848	inactive
16	LHX8 (LIM homeobox 8)	1.31	migration z between -2 and 2; enough cells	1.23	5362	inactive
17	GLCCI1 (glucocorticoid induced 1)	-0.93	migration z between -2 and 2; enough cells	0.64	4310	inactive
18	HES7 (hes family bHLH transcription factor 7)	-1.27	migration z between -2 and 2; enough cells	0.56	4302	inactive
19	SLAIN1 (SLAIN family member 1)	0.86	migration z between -2 and 2; enough cells	1.11	6747	inactive
20	CDH6 (cadherin 6)	-0.87	migration z between -2 and 2; enough cells	0.66	5677	inactive
21	ATL3 (atlastin GTPase 3)	-2.56	migration z below -2; enough cells	0.22	3700	active
22	OR51V1 (olfactory receptor family 51 subfamily V member 1)	0.74	migration z between -2 and 2; enough cells	1.08	5141	inactive
23	ARHGEF18 (Rho/Rac guanine nucleotide exchange factor 18)	-0.26	migration z between -2 and 2; enough cells	0.76	5394	inactive
